PubChem BioAssay AID1259254 | NCATS, 2017

Test: 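Gene knock-downs that lead to re-replication, shown by excess G2 DNA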 (primary screen)
System: human HCT116 colorectal cancer cells
Reagent: single siRNA against human genes
Duration: 3 days
Read-out: 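Imaged Hoechst DNA stain sorts each cell into a cycle phase by DNA amount; per plate, G2 fraction set to 0% for non-targeting and 100% for GMNN siRNA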
Scale: G2 robust z-score: higher = more G2 cells, more excess DNA replication
Hit rule: 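An siRNA counts as active if its G2 robust z-score lies at least 5 MADs above the screen median; here such calls match roughly 38% of GMNN control or more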
The whole screen tested about 59,000 reagents; this is a random part of them. In the full data, about 1,550 (2.6%) were called active. 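G2 share is only a proxy for re-replication; each gene was hit by three separate siRNAs, and active genes were retested.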 Entries without a mark were called inactive. Reagents against one gene are numbered here. Further read-outs or replicates are left out here. Reagent sequences are not shown. Not stated in the record: the amount of reagent.

SOX1 #1
- G2 robust z-score: 0.608

SOX1 #2
- G2 robust z-score: -1.08

SOX1 #3
- G2 robust z-score: -0.334

MAGOHB #1
- G2 robust z-score: 0.802

MAGOHB #2
- G2 robust z-score: -0.241

MAGOHB #3
- G2 robust z-score: 1.28

Next part; the last 2 above are carried over.
MAGOHB #2
- G2 robust z-score: -0.241

MAGOHB #3
- G2 robust z-score: 1.28

IPO4 #1
- G2 robust z-score: 1.15

IPO4 #2
- G2 robust z-score: -0.957

IPO4 #3
- G2 robust z-score: 4.92

C11orf42 #1
- G2 robust z-score: -0.865

C11orf42 #2
- G2 robust z-score: 1.08

C11orf42 #3
- G2 robust z-score: -0.237
